Measured values: paper PMC6942600
No constants are given. Whether binding was seen depends on the method and setting. Binding seen in cells or lysates may run through a third protein. Some binding calls cover weakened binding; strength is not graded here.

The chains behind the UniProt entries cited, without tags or fusion partners.
UniProt P30680: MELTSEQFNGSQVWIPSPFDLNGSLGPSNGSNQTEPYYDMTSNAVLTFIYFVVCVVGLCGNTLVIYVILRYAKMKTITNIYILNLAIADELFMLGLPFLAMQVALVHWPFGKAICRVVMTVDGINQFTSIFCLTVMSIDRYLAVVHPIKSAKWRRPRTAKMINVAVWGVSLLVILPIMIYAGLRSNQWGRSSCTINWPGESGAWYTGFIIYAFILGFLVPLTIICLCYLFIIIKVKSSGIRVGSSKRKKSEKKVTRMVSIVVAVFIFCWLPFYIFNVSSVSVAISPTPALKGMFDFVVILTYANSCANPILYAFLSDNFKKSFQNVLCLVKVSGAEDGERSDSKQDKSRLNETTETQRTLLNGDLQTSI
UniProt P34975: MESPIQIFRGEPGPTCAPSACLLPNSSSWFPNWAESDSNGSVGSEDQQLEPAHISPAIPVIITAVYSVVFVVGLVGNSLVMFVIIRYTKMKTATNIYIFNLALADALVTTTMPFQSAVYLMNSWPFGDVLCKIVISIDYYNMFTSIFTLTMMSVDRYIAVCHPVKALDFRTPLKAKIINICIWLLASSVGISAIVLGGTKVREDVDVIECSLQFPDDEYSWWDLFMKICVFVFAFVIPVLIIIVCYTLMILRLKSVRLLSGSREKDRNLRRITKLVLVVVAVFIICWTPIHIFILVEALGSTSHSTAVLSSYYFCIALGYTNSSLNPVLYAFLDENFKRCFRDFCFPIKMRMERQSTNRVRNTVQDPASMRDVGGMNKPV

Target: somatostatin receptor 2 (rat (endogenous in rat brain sections)) (UniProt P30680)
Assay: proximity ligation; in situ PLA on free-floating formalin fixed rat brain sections (35 um, Bregma +1.0 mm), claustrum and dorsal endopiriform nucleus; mouse anti-KOR and rabbit anti-SSTR2 primary antibodies, Duolink probes, confocal microscopy

- binding: binds
Substance: kappa opioid receptor (from UniProt P34975 1-380)
